Measured values reported in PubChem BioAssay AID743255 (National Center for Advancing Translational Sciences (NCATS), 2014).
Screen size: about 390,000 compounds; about 910 (0.23%) were called active. Inconclusive results, whose numbers are uncertain, are shown with a selection of clear calls. The call rests on the fitted dose curve; in most records, active means well fitted inhibition curve with a large enough effect; inconclusive means small, poorly fitted or top-dose-only effect; inactive means no such curve, though single readings can be large or run the other way. Where the call is inconclusive, the potency comes from a doubtful curve fit.

The chains behind the UniProt entries cited, without tags or fusion partners. Where a name states a change or a piece, a line headed by the entry shows the natural chain unless it says otherwise.
UniProt O94782: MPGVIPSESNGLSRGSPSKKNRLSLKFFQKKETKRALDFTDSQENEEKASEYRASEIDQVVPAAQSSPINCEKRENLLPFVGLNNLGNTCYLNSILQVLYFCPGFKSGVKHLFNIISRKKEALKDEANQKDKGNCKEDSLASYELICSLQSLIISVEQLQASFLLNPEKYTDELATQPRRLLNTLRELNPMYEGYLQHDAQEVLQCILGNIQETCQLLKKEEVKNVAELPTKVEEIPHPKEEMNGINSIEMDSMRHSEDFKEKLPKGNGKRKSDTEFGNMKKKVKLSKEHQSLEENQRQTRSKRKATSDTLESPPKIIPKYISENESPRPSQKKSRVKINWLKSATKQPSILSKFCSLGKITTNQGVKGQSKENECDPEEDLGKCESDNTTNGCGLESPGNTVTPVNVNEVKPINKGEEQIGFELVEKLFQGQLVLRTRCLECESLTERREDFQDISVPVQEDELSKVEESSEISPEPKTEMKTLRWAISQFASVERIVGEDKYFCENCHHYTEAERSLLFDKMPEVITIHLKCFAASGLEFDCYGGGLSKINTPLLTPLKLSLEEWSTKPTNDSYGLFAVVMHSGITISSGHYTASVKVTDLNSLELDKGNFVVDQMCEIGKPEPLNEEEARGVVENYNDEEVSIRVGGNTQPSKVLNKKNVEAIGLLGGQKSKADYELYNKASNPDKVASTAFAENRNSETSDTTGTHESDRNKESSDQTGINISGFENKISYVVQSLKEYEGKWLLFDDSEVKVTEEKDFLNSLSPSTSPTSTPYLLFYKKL

target: Ubiquitin carboxyl-terminal hydrolase 1 (Homo sapiens) (UniProt O94782); assay: Inhibitors of USP1/UAF1: Primary Screen; details: recombinant USP1/UAF1, Ub-Rhodamine cleavage fluorescence; activity change, negative = inhibition: at 57.1 µM (top of the series); further: nearly all actives have a fitted effect of over 60% in size
In short: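 High-throughput fluorogenic screen: 1nM USP1/UAF1 complex, Ub-Rho substrate 150nM final, 50mM HEPES pH 7.8 with 0.5mM EDTA, 0.1 mg/ml BSA, 1mM TCEP and 0.01% Tween-20.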
On the % scale 0 is the no-effect control and ±100 the full control effect; potency means the concentration at half of the fitted maximal effect.

| Structure (SMILES) | activity change, negative = inhibition | Potency |
| --- | --- | --- |
| CCc1ccc(C(=O)c2c(N)c(-c3nc(-c4ccc5c(c4)OCO5)cs3)c3ccccn23)cc1 | inactive: -26.9% |  |
| COC(c1ccccc1)(c1ccccc1)C(Oc1nccc(C)n1)C(=O)O (stereo unspecified) | inactive: -12.6% |  |
| CC(C)(C)NC(=O)CSc1nc(O)cc(=O)n1-c1ccccc1F |  | inconclusive: 35.5 µM [inhibitor, partial curve, poor fit] |
| COc1ccc2ccccc2c1C1CC(=O)N2CN(C3CCCCC3)CSC2=C1C#N (stereo unspecified) |  | inconclusive: 12.6 µM [inhibitor, partial curve] |
| Cc1nc(C)c(C(=O)O)c(-c2ccsc2)c1C(=O)O |  | inconclusive: 3.55 µM [inhibitor, partial curve] |
| Cc1ccc(C(=O)c2c3ccc([N+](=O)[O-])cc3[n+]([O-])n2CCCN)cc1 |  | inconclusive: 79.4 µM [inhibitor, partial curve, poor fit] |
| CC(C)(C)c1ccc(S(=O)(=O)c2cnc(SCC(=O)Nc3ccc(F)c(Cl)c3)[nH]c2=O)cc1 |  | inconclusive: 35.5 µM [inhibitor, partial curve, poor fit] |
| CCO[C@H]1OC(C(=O)N2CCN(C)CC2)=C[C@@H](c2coc3ccccc3c2=O)[C@@H]1CCCO |  | inconclusive: 50.1 µM [inhibitor, partial curve, poor fit] |
| CCN1c2ccccc2N(C)C1(C)c1ccccc1 (stereo unspecified) |  | inconclusive: 17.8 µM [inhibitor, partial curve] |
| O=C(NCc1ccco1)c1c[nH]c2ccc(S(=O)(=O)Nc3ccc(F)cc3F)cc2c1=O |  | inconclusive: 0.794 µM [inhibitor, full curve, poor fit] |
| CCCCNc1nc2c(S(=O)(=O)c3ccc(Cl)cc3)nnn2c2ccsc12 |  | inconclusive: 126 µM [inhibitor, partial curve, poor fit] |
| O=C1[C@H]2[C@@H](/C=C/c3ccccc3)N3C(=O)CN(CCO)C(=O)[C@@]3(Cc3ccccc3)[C@H]2C(=O)N1c1ccccc1 |  | inconclusive: 39.8 µM [inhibitor, partial curve, poor fit] |
| COc1ccc(CNC(=O)CCN2C(=O)c3ccccc3C2=O)cc1OC |  | inconclusive: 0.562 µM [inhibitor, full curve, poor fit] |
| CCN(CC)c1ccc(/C=N/NC(=O)c2c(-c3ccccc3)noc2C)cc1 | inactive: -19.5% |  |
| C#CCOCCOCCOCCNc1nc(N2CCN(C(=O)CCCCCCCCCCNC(=O)Cn3cc(C[C@@H](C)O)nn3)CC2)nc(N2CCN(C(=O)CCCCCCCCCCNC(=O)[C@H](CCCN=C(N)N)n3cc(C[C@@H](C)CC)nn3)CC2)n1 |  | inconclusive: 50.1 µM [inhibitor, partial curve, poor fit] |
| O=C(Nc1ccc2oc(-c3cc(Br)ccc3Cl)nc2c1)c1ccc2ccccc2c1 |  | inconclusive: 35.5 µM [inhibitor, partial curve, poor fit] |
| COc1ccc(S(=O)(=O)N(C)C[C@H]2Oc3ccc(NC(=O)NC4CCCCC4)cc3C(=O)N([C@H](C)CO)C[C@@H]2C)cc1 |  | inconclusive: 1000 µM [inhibitor, partial curve] |
| COc1cccc(CNC(=O)c2nnc(Cc3ccc(Cl)cc3)o2)c1 |  | inconclusive: 50.1 µM [inhibitor, partial curve, poor fit] |
| CCOCCc1nn2c(=O)cc(COC(=O)c3ccco3)nc2s1 | inactive: 3.47% |  |
| CN1CCn2cnc(C(=O)N3CCN(c4ccccc4)CC3)c2C1=O |  | inconclusive: 0.282 µM [inhibitor, full curve, poor fit] |
| Cc1oc2ncn(C)c(=O)c2c1C(=O)NCc1ccccc1 | inactive: -20.5% |  |

| Structure (SMILES) | activity change, negative = inhibition | Potency |
| --- | --- | --- |
| O=C(Nc1ccccc1C(=O)O)c1cccc(C(=O)Nc2ccccc2C(=O)O)c1 |  | inconclusive: 14.1 µM [inhibitor, partial curve] |
| CCOc1ccc(NS(=O)(=O)c2ccc(C(=O)N3CCCCCC3)cc2)cc1 | inactive: -5.59% |  |
| O=C(/C=C/c1cccc(F)c1)NCc1ccc2c(c1)OCO2 | inactive: -19.2% |  |
| COc1ccc2cc(C)c(SCC(=O)Nc3cc(C)on3)nc2c1 |  | inconclusive: 20 µM [inhibitor, partial curve, poor fit] |
| COc1cccc(C(=O)Nc2ccccc2-c2nnc(-c3ccc(C(C)(C)C)cc3)o2)c1 | inactive: -1.87% |  |
| CCCSc1nc2cc(C)c(C)cc2n1CC(O)CO (stereo unspecified) | inactive: -8.41% |  |
| Cc1cccc(CNC(=O)CCCN2C(=O)COc3ccc(C)cc32)c1 |  | inconclusive: 12.6 µM [inhibitor, partial curve] |
| Cc1ccc(CNC(=O)C2=NNC(=O)CC2)cc1 | inactive: -4.94% |  |
| Cc1cccc(-n2ncc(C(=O)NCc3ccco3)c2C2CCN(C(=O)OC(C)(C)C)CC2)c1 |  | inconclusive: 7.08 µM [inhibitor, partial curve, poor fit] |
| COc1ccccc1C1SCCN1S(C)(=O)=O (stereo unspecified) | inactive: -12% |  |
| COc1cc(NS(=O)(=O)c2ccc(NC(=O)c3ccc(C(C)=O)cc3)cc2)nc(OC)n1 |  | inconclusive: 8.91 µM [inhibitor, partial curve] |
| O=c1oc(-c2cccs2)nc2sc3c(c12)CCC3 |  | inconclusive: 0.708 µM [inhibitor, full curve, poor fit] |
| COc1cccc(NS(=O)(=O)c2ccc(Br)s2)c1 | inactive: -9.8% |  |
| Cc1ccc(N2C3=C(C(=O)CC(C)(C)C3)C(c3cn(C)nc3C)C3=C2CC(C)(C)CC3=O)cc1 | inactive: -22.6% |  |
| O=C(c1ccc(Cl)c(Cl)c1)N1CCC(=O)N(C(CO)Cc2ccccc2)CC1 (stereo unspecified) | inactive: 23.5% |  |
| O=C(O)CCNc1cc2ccccc2cc1C(=O)O | inactive: -17.8% |  |
| Cc1occc1-c1nnc(SCC(=O)c2ccc(Cl)cc2)n1C | inactive: -16.3% |  |
| CN1CCN(c2cc(N3CCN(C(=O)c4ccco4)CC3)c3c4c(onc24)-c2ccccc2C3=O)CC1 |  | inconclusive: 14.1 µM [inhibitor, partial curve] |
| COC(=O)c1c(NC(=O)c2c(OC)cccc2OC)sc2c1CCCC2 |  | inconclusive: 20 µM [inhibitor, partial curve, poor fit] |
| CCc1ccccc1NC(=O)/C(C#N)=C\c1ccc(Sc2ccccc2)o1 |  | inconclusive: 28.2 µM [inhibitor, partial curve] |

Reprinted at random: 3 records from the list

| Structure (SMILES) | activity change, negative = inhibition | Potency |
| --- | --- | --- |
| Cc1nc(C)c(C(=O)O)c(-c2ccsc2)c1C(=O)O |  | inconclusive: 3.55 µM [inhibitor, partial curve] |
| COc1cc(NS(=O)(=O)c2ccc(NC(=O)c3ccc(C(C)=O)cc3)cc2)nc(OC)n1 |  | inconclusive: 8.91 µM [inhibitor, partial curve] |
| COc1ccc2ccccc2c1C1CC(=O)N2CN(C3CCCCC3)CSC2=C1C#N (stereo unspecified) |  | inconclusive: 12.6 µM [inhibitor, partial curve] |
